This note sets out measurements from PubChem BioAssay AID248 (DTP/NCI, 2004).

The test system of the assay is L1210 leukemia ip in BDF1 mice, survival T/C. In words: NCI In Vivo Anticancer Drug Screen. Data for tumor model L1210 Leukemia (intraperitoneal) in B6D2F1 (BDF1) mice. Particulars: T/C endpoint: mean survival time, higher T/C = longer survival.
[1] abbreviates: dose: 50.0 mg/kg/injection, schedule: Q01DX001 (ip), vehicle: saline.
Setting [2] is: dose: 100.0 mg/kg/injection, schedule: Q01DX001 (ip), vehicle: saline.
Setting [3] is: dose: 200.0 mg/kg/injection, schedule: Q01DX001 (ip), vehicle: saline.
[4] abbreviates: dose: 100.0 mg/kg/injection, schedule: Q04DX003 (ip), vehicle: Klucel (hydroxypropylcellulose) (HPC).
Setting [5] is: dose: 200.0 mg/kg/injection, schedule: Q04DX003 (ip), vehicle: Klucel (hydroxypropylcellulose) (HPC).
Setting [6] is: dose: 400.0 mg/kg/injection, schedule: Q04DX003 (ip), vehicle: Klucel (hydroxypropylcellulose) (HPC).
Setting [7] is: dose: 400.0 mg/kg/injection, schedule: Q01DX009 (ip), vehicle: saline with Tween-80.
Where [8] appears, read: dose: 150.0 mg/kg/injection, schedule: Q01DX001 (ip), vehicle: saline.
The mark [9] stands for this setting: dose: 400.0 mg/kg/injection, schedule: Q04DX002 (ip), vehicle: Klucel (hydroxypropylcellulose) (HPC).
The mark [10] stands for this setting: dose: 100.0 mg/kg/injection, schedule: Q01DX009 (ip), vehicle: Klucel (hydroxypropylcellulose) (HPC).
[11] abbreviates: dose: 200.0 mg/kg/injection, schedule: Q01DX001 (ip), vehicle: Klucel (hydroxypropylcellulose) (HPC).
The mark [12] stands for this setting: dose: 400.0 mg/kg/injection, schedule: Q01DX001 (ip), vehicle: Klucel (hydroxypropylcellulose) (HPC).
Where [13] appears, read: dose: 400.0 mg/kg/injection, schedule: Q04DX003 (ip), vehicle: saline.
Setting [14] is: dose: 200.0 mg/kg/injection, schedule: Q01DX009 (ip), vehicle: Klucel (hydroxypropylcellulose) (HPC).
The mark [15] stands for this setting: dose: 400.0 mg/kg/injection, schedule: Q04DX003 (ip), vehicle: saline with Tween-80.

The list shows only some results of the screen, not a fair sample: it is rich in T/C values a quarter to a half above the control, in often repeated tests (any T/C) and in doses without a T/C. Further doses and runs are listed elsewhere. T/C is the treated group as % of the vehicle group. Some doses have a count of surviving animals in place of a T/C: the source files T/C as zero there, which appears to mark a toxic dose or a test without result, not a measured value. Some survivor counts are full or nearly so, which does not show that the dose was tolerated: the source hardly ever lists a survival T/C far under the control, and the zero likely stands for such cases as well. Counts of survivors are from the toxicity check (mostly the fifth day) where no day follows; animals may have died later. Schedules are NCI's codes, read here as Q, the interval in days (D) or hours (H), X, the number of doses. Some schedule codes hold Z or #, which are not explained here. Where survival is the endpoint, the PubChem record calls one and a half times the control and up active, and a quarter to a half above the control has no call in these data; cut-offs in other NCI protocols can differ. Some entries hold several experiments; their values stand side by side, smallest first. Some T/C values carry the count of animals alive at the toxicity check (mostly the fifth day); where none is given, no animal had died by that day.

Regarding `CC/C=N\NC`, the survivor count under setting [1] is recorded as 2 of 4; the survivor count (dose: 80.0 mg/kg/injection, schedule: Q01DX001 (ip), vehicle: saline) is on record as 0 of 6; the survivor count under setting [2] was 0 of 4; the survivor count under setting [3] was 0 of 4; the survivor count (dose: 400.0 mg/kg/injection, schedule: Q01DX001 (ip), vehicle: saline) is 0 of 4.

In the case of `CN1CCN(C(c2ccccc2)c2ccccc2)CC1`, the survivor count under setting [4] is reported as 2 of 4, the survivor count under setting [5] was 1 of 4 and the survivor count under setting [6] was 0 of 4.

Consider `CCCCCCCCCCCCCCCCCCNC(=O)Nc1ccc(C(C)C)cc1`, for which the survivor count under setting [6] is 6 of 6.

On to `N=c1ccn(C(=O)C2=Cc3cc(Cl)ccc3OC2)cc1`, for which the survivor count under setting [7] is on record as 6 of 6.

`O=C(Nc1ncc(S(=O)(=O)c2ccc([N+](=O)[O-])cc2)s1)C(F)(F)F`: the survivor count under setting [7] is 3 of 6.

Consider `OC1(c2cccc(C(F)(F)F)c2)CCN(C2CC2)CC1`, for which the survivor count under setting [4] is given as 0 of 6, the survivor count under setting [5] is on record as 0 of 6 and the survivor count under setting [6] is on record as 0 of 6.

For `Nc1nc(SCc2ccccc2)c2ncn(C3CC(O)C(CO)O3)c2n1` (configuration not stated), the T/C by setting is: (dose: 44.0 mg/kg/injection, schedule: Q01DX001 (ip), vehicle: saline) 142 % of control; under setting [1], 126 % of control; (dose: 67.0 mg/kg/injection, schedule: Q01DX001 (ip), vehicle: saline) 143 % of control; under setting [2], 132 and 137 % of control; under setting [8], 128 % of control [5 of 6 alive]; under setting [3], 134 % of control.

Regarding `CC1=CC2C(C(C)C)CC1C1C(=O)OC(=O)C21` (configuration not stated), the survivor count under setting [9] is recorded as 0 of 3.

For `CCOC(=O)c1cnc(SC)nc1Nc1ccccc1[N+](=O)[O-]`, the survivor count (dose: 100.0 mg/kg/injection, schedule: Q01DX001 (ip), vehicle: Klucel (hydroxypropylcellulose) (HPC)) is recorded as 6 of 6.

Take `CCN(CC)CCCC(C)Nc1cc(C)nc(/N=C(\N)Nc2ccc(Cl)c(Cl)c2)n1` (configuration not stated): the survivor count runs as follows: under setting [10], 0 of 6; under setting [11], 3 of 6; under setting [12], 0 of 6.

As to `O=C(COc1cc2ccccc2cc1C(=O)O)NCc1ccc(Cl)cc1`, the survivor count under setting [13] is 3 of 6.

For `C(=C(CC1CCC1)CC1CCC1)C1CCC1`, the survivor count (dose: 400.0 mg/kg/injection, schedule: Q04DX002 (ip), vehicle: saline with Tween-80) was 3 of 3.

As for `c1ccc(CN(CCNc2ccccc2)c2ccccc2)cc1`, the survivor count (dose: 200.0 mg/kg/injection, schedule: Q01DX009 (ip), vehicle: water) is given as 5 of 6.

Take `CNCC(C)(C)c1ccccc1`: the survivor count was 0 of 6 (dose: 200.0 mg/kg/injection, schedule: Q01DX009 (ip), vehicle: saline); 0 of 4 (dose: 200.0 mg/kg/injection, schedule: Q04DX003 (ip), vehicle: saline); 0 of 6 (dose: 400.0 mg/kg/injection, schedule: Q01DX009 (ip), vehicle: saline); 0 of 4 under setting [13].

`CCCC[P+](CC(C)(C)c1ccc(C)cc1)(c1ccccc1)c1ccccc1`: the survivor count is 3 of 3 (dose: 25.0 mg/kg/injection, schedule: Q04DX002 (ip), vehicle: saline with Tween-80); 3 of 3 (dose: 50.0 mg/kg/injection, schedule: Q04DX002 (ip), vehicle: saline with Tween-80); 0 of 3 (dose: 200.0 mg/kg/injection, schedule: Q04DX002 (ip), vehicle: saline with Tween-80).

As for `Oc1ccc(Nc2ncnc3cc(Cl)ccc23)cc1CN(c1ccccc1)c1ccccc1`, under setting [13], the survivor count is reported as 2 of 6.

With `COc1ccc(-c2sc(/N=C/c3cc(Br)cc(Br)c3O)c(C#N)c2C)cc1OC`, the survivor count (dose: 400.0 mg/kg/injection, schedule: Q01DX001 (ip), vehicle: saline with Tween-80) is listed as 6 of 6.

With `CCCCC(CC)CNCC(O)CNCC(CC)CCCC` (configuration not stated), the survivor count by setting is: under setting [10], 0 of 3; under setting [14], 0 of 3; under setting [9], 0 of 3.

As for `Clc1cnc(C(Cl)(Cl)Cl)c(Cl)n1` (tested in a mixture with another compound), the survivor count is, setting by setting: (dose: 50.0 mg/kg/injection, schedule: Q01DX009 (ip), vehicle: Klucel (hydroxypropylcellulose) (HPC)) 3 of 3; under setting [10], 0 of 3; under setting [14], 0 of 3.

In the case of `c1ccc2c(CN3CCCCC3)c[nH]c2c1`, the survivor count is on record as 0 of 6 (dose: 200.0 mg/kg/injection, schedule: Q01DX009 (ip), vehicle: saline with Tween-80) and 4 of 6 under setting [15].

Consider `Nc1ncc(CO)c(N)n1`, for which the survivor count under setting [11] was 5 of 6 and the survivor count under setting [12] is given as 0 of 6.

In the case of `c1ccc(C2CC3c4ccccc4C2c2cccc[n+]23)nc1` (configuration not stated), the survivor count under setting [12] is 1 of 6.

With `CCCCOc1cc(C(=O)NCCN(CC)CC)c2ccccc2n1`, the survivor count (dose: 100.0 mg/kg/injection, schedule: Q04DX003 (ip), vehicle: saline with Tween-80) is 0 of 6; the survivor count (dose: 200.0 mg/kg/injection, schedule: Q04DX003 (ip), vehicle: saline with Tween-80) is 0 of 6; the survivor count under setting [15] is on record as 0 of 6.

As for `O=S(=O)(O)c1ccc(-c2ccc(S(=O)(=O)O)cc2)cc1`, where the note is “dose: 300.0 mg/kg/injection, schedule: Q01DX Z (ip), vehicle: methylcellulose (MC)”, the survivor count is recorded as 4 of 6.

As for `Cc1ccc(NC(=O)c2ccc(C(=O)Nc3ccc(C)cc3)cc2)cc1`, the survivor count runs as follows: (dose: 112.0 mg/kg/injection, schedule: Q01DX Z (ip), vehicle: carboxymethylcellulose (CMC)) 6 of 6; (dose: 450.0 mg/kg/injection, schedule: Q01DX Z (ip), vehicle: carboxymethylcellulose (CMC)) 6 of 6.

Consider `CNC(=O)Oc1ccc([N+](C)(C)C)cc1`, for which the survivor count is recorded as 3 of 6 (dose: 38.0 mg/kg/injection, schedule: Q01DX001 (ip), vehicle: saline); 0 of 6 (dose: 75.0 mg/kg/injection, schedule: Q01DX001 (ip), vehicle: saline); 0 of 6 under setting [8]; 0 of 6 (dose: 300.0 mg/kg/injection, schedule: Q01DX001 (ip), vehicle: saline).

With `CCN=C(NCC)Nc1ccc(NC(=O)c2ccc(C(=O)Nc3ccc(NC(=NCC)NCC)cc3)cc2)cc1`, the T/C by setting is: (dose: 4.0 mg/kg/injection, schedule: Q01DX009 (ip), vehicle: carboxymethylcellulose (CMC)) 127 % of control; (dose: 15.0 mg/kg/injection, schedule: Q01DX Z (ip), vehicle: water) 136 and 142 % of control [5 of 6 alive]; (dose: 130.0 mg/kg/injection, schedule: Q01DX001 (ip), vehicle: carboxymethylcellulose (CMC)) 136 % of control; (dose: 360.0 mg/kg/injection, schedule: Q01DX001 (ip), vehicle: other) 149 % of control. Moreover, the survivor count is, setting by setting: (dose: 30.0 mg/kg/injection, schedule: Q01DX Z (ip), vehicle: water) 6 of 6; (dose: 32.0 mg/kg/injection, schedule: Q01DX009 (ip), vehicle: carboxymethylcellulose (CMC)) 6 of 6; (dose: 60.0 mg/kg/injection, schedule: Q01DX Z (ip), vehicle: water) 0 of 6; (dose: 112.0 mg/kg/injection, schedule: Q01DX009 (ip), vehicle: other) 6 of 6; (dose: 120.0 mg/kg/injection, schedule: Q01DX Z (ip), vehicle: water) 0 of 6.
